From US20220106360A1 (UNIVERSITY OF PITTSBURGH OF THE COMMONWEALTH SYSTEM OF …, published 2022) come the findings set out here.

The target in this test is T1, VAPA 1-242 expressed from pEGFP-N1-VAPA; 1-242 (Addgene #18874) in HEK293 cells (UniProt Q9Z270).
T1 sequence (looked up): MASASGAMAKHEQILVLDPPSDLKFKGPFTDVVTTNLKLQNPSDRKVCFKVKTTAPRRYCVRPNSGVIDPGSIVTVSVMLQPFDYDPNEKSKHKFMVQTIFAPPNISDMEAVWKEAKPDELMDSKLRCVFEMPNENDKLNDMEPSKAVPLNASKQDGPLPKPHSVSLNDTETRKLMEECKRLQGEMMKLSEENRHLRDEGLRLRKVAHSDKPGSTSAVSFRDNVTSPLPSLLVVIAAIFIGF
As to the kind of experiment: peptide spot array (far western) with lysate of HEK293 cells expressing VAPA 1-242, anti-VAPA detection.

No constants are given. Whether binding was seen depends on the method and setting. Some binding calls cover weakened binding; strength is not graded here. Tags and fused reporters may be left off the sequences shown.

B1: canonical FFAT motif peptide (EFFDAPE) (peptide)
peptide: EFFDAPE
As to B1, the binding result is “binds”.
